Sequences and labels used below:
B1: il2ra_site1_3nfp_sap_8_mot_9410bc1eedee1757c7b766bec531e3ee_0001_1_000000027_0001_33_48_H_._HHH_b1_02973_0001_0000500027_0000001_0_0001_af2pred_0001_af2pred (protein)
chain: SSSSSSEFSRRVDELIRLLLKARSEEEIERVFEEVRRLAEEANDPLAKRLVELAYRLARSSSSSS
B2: il2ra_site1_2b5i_normal_mot_HHH_b1_01949_af2_000000166_0001_1_19_H_._HHH_b1_03840_af2_0001_0000200016_0000001_0_af2pred_dldesign_0_af2pred (protein)
chain: SSSSTPEEDKIYELYKEALELVRQGKKEEAKKVLEEALELAKKAKDEKAVAEIEYLLEKLSSSSS
B3: il2ra_site1_2b5i_normal_mot_HHH_b1_02271_000000068_0001_1_16_H_._HHH_b1_06299_0001_0000300016_0000001_0_af2pred_dldesign_0_af2pred (protein)
chain: SSSSSSRLEKLKRVEELLHQYEQAETEEERAELEAEIRALAAELKDPVVERAIEEAREERSSSSS
B4: il2ra_site2_3nfp_normal_mot_HHH_b1_02297_000000279_0001_41_58_H_._c393a752425a4fe2e67a9f8335af7c62_0001_1_0001_0000200007_0000001_1 (protein)
chain: SKAEEAERVAKNLNDPEAEEIVRLVKELEEEGDPEKLRELLARVLREAYERRNFELFAVINILVN
B5: il2ra_site2_2erj_normal_mot_HHH_b2_08201_000000058_0001_20_36_H_._HHH_b2_00201_af2_0001_0000100005_0000001_0 (protein)
chain: SSSSSEVEELLKEAKELLEEGNPEEAEEVLSRAFELAYRLGDEELFNEIVELFELIIELEHSSSS
B6: il2ra_site1_3nfp_sap_6_mot_HHH_b2_06502_000000163_0001_42_55_H_._HEEHE_0113_0001_0000200018_0000001_0_0001 (protein)
chain: SSSSSNDEAWRLLREAYEEFKKAKSREEMRELLEEAERLARELGDERLLRDIEKWLEQMKSSSSS
B7: il2ra_site1_3nfp_sap_17_mot_HHH_b1_07180_af2_000000260_0001_1_19_H_._HHH_b2_04738_0001_0000600012_0000001_0_0001_af2pred_0001_af2pred_1_swapped (protein)
chain: SSSSSDDLERMRELSRQLLELRRNEDKERLEELAQELLELAEETNSRAARILAELLLERASSSSS
B8: il2ra_site1_3nfp_sap_16_mot_58e3eb3031e6d57439b1b965989c2868_0001_af2_000000159_0001_19_34_H_._7652b2386bb4fc5942ed0486cd997122_0001_af2_0001_0000500019_0000001 … (protein)
chain: SSSSSPKREELARLFEEAEALAKAGKPEEAKEVLEKALKLAKELKANKTIRFIELCLKSLESSSS
B9: il2ra_site1_2b5i_sap_25_mot_c4dd8cf0dac887b0ed015202f8c0b8fc_0001_000000224_0001_37_51_H_._2012b86ae8029c2c8ab6d311e818aa61_0001_0001_0000100008_0000001_0_0001_ … (protein)
chain: SSSSSLVAEALALFKEADKLFQAGKEEEAKEVLEKALELAKAAGAKLLVKIIESALKDLESSSSS
B10: il2ra_site1_3nfp_normal_mot_HHH_b2_01219_af2_000000024_0001_1_17_H_._HHH_b1_07852_af2_0001_0000100004_0000001_0 (protein)
chain: SSSSSSLEWIEEQAERAFKNNDRLDLRALEKIVKRAIEIIGDPKAREVLELIEELLERLKSSSSS
B11: il2ra_site2_2erj_normal_mot_HHH_b1_00941_000000060_0001_45_58_H_._HHH_b1_02002_0001_0000100008_0000001_0_af2pred_0001_1_af2pred_swapped (protein)
chain: SSSSSDEEIEERVRELLEEAEKIKDKREALELLEEASKLAAELDDPELLELIDEVAQRLSSSSSS
B12: il2ra_site1_2b5i_sap_8_mot_HHH_b1_05103_000000017_0001_1_14_H_._HHH_b2_05767_0001_0000500016_0000001_0_0001 (protein)
chain: SSSSSLDERIQELFHRASRLFLEGNPEEARELLEEALELAEELGSPKLEEDVRQMLERLNSSSSS
B13: il2ra_site2_3nfp_sap_20_mot_HHH_b2_07129_000000128_0001_19_36_H_._HHH_b2_07592_0001_0000200010_0000001_0_0001 (protein)
chain: SDAEEAEQILLRIAHLAWEKNDFEAWMEVAELILRLARAKERNDEELVEEITELAKELEEKVRSS
B14: il2ra_site2_2erj_normal_mot_HHH_eva_0050_af2_000000198_0001_43_62_H_._HHH_b2_07905_0001_0000100006_0000001_1 (protein)
chain: SSSSSSDEEEKEVRELLEEARHLTDLEEVYRLLNEALHLAARHRDHELLELILEFLEEQSSSSSS
B15: il2ra_site2_3nfp_normal_mot_HHH_b1_01086_af2_000000264_0001_39_53_H_._HHH_b2_08168_0001_0000100002_0000001_0_af2pred_0001_af2pred (protein)
chain: SSSSSSSEEEVEELLEEAEKADDPRLRLLLLLRARKIAEQLGDPELQRLVEEVYRRLFSSSSSSS
B16: il2ra_site1_1z92_sap_9_mot_HHH_b1_06381_000000058_0001_42_59_H_._HHH_b1_03318_0001_0000100005_0000001_0_0001_af2pred_0001_af2pred_swapped (protein)
chain: SLVEQTLREAVEKNDEELLRRFIEIALRDAGDPRLVKQLLRILVKRLGLPPEVLERLEELLEELT
B17: il2ra_site1_3nfp_normal_mot_ems_3hC_921_af2_000000143_0001_22_40_H_._HHH_b2_03092_0001_0000300056_0000001_0_af2pred_0001_af2pred_1_swapped (protein)
chain: SSSSSEESREFQELSREVSKLIQEGDREEAEELLKELERLARELNSPIAELLVKLLEELLGSSSS
B18: il2ra_site1_3nfp_sap_13_mot_HHH_b1_02658_000000155_0001_1_19_H_._HHH_b2_06239_af2_0001_0000100001_0000001_0_0001 (protein)
chain: SSSSNAAMRWLREAAERAFENNNRLDLRALLRLLERAIEQFGDPEAEELLEFIERLLEKLSSSSS
B19: il2ra_site1_1z92_sap_17_mot_HHH_b1_00368_000000203_0001_23_39_H_._HHH_b2_03759_0001_0000300045_0000001_0_0001_af2pred_0001_af2pred_1 (protein)
chain: SSSSSLELAKRLHEFVLRLIEELGLSDEDAQKLLELLAQLLAKGVSEEEAEEELERLAEELSSSS

Some of the results follow.

This experiment deals with il2ra, P01589. Briefly: yeast display titration.
For B1, the “apparent Kd” value is “inactive: no binding seen”.
As for B2, the entry is “inactive: no binding seen”; as for B3, “inactive: no binding seen”.
Consider B4, for which the “apparent Kd” value is “inactive: no binding seen”.
As for B5, the “apparent Kd” value is “inactive: no binding seen”.
Turning to B6, the “apparent Kd” value is “inactive: no binding seen”.
With B7, the “apparent Kd” value was “inactive: no binding seen”.
As for B8, the entry is “inactive: no binding seen”; as for B9, “inactive: no binding seen”.
On to B10, for which the “apparent Kd” value was “inactive: no binding seen”.
For B11, the “apparent Kd” value was “inactive: no binding seen”.
Consider B12, for which the “apparent Kd” value was “inactive: no binding seen”.
As to B13, the “apparent Kd” value was “inactive: no binding seen”.
In the case of B14 it was “inactive: no binding seen”; in that of B15, “inactive: no binding seen”.
With B16, the “apparent Kd” value was “inactive: no binding seen”.
Consider B17, for which the “apparent Kd” value was “inactive: no binding seen”.
As to B18, the “apparent Kd” value is “inactive: no binding seen”.
B19: the “apparent Kd” value is “inactive: no binding seen”.

(Values after PMC10163288.)
